This is an account of results in article PMC1242139.

Sequences of proteins named here, by UniProt entry; tags and fusion partners are left off. Residues count along the entry.
UniProt P06494, residues 23-1257: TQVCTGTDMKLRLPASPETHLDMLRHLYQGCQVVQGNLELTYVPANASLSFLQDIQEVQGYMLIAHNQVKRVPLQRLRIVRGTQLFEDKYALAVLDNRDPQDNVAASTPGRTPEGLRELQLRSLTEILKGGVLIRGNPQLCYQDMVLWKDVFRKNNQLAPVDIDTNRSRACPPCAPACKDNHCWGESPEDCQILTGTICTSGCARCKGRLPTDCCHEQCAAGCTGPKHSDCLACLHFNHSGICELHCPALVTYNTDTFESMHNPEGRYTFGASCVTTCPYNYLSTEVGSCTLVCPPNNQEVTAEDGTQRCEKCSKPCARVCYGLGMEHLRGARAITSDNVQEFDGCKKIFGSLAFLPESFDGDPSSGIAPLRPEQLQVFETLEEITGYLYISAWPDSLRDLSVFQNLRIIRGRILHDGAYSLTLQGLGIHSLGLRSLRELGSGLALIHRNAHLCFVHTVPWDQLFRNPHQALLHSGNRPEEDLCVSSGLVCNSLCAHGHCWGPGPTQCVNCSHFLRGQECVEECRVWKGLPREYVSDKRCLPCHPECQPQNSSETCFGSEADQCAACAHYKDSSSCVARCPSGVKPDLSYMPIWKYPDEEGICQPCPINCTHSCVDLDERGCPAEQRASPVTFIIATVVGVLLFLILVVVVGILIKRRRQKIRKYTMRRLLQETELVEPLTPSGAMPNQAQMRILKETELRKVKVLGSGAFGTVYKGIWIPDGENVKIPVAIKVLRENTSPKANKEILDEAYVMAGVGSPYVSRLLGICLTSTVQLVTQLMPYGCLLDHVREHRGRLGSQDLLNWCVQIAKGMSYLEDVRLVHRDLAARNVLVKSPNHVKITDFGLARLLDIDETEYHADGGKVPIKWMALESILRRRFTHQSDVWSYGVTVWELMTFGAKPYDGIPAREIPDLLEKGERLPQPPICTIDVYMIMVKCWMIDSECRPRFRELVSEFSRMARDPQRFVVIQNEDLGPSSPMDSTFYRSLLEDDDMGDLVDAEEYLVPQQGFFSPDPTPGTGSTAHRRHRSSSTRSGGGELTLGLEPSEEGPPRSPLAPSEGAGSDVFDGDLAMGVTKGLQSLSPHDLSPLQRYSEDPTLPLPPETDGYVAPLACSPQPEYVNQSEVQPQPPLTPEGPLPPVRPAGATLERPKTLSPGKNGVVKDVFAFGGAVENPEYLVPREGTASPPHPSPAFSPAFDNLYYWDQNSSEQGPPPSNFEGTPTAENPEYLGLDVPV
UniProt Q61526, residues 20-1339: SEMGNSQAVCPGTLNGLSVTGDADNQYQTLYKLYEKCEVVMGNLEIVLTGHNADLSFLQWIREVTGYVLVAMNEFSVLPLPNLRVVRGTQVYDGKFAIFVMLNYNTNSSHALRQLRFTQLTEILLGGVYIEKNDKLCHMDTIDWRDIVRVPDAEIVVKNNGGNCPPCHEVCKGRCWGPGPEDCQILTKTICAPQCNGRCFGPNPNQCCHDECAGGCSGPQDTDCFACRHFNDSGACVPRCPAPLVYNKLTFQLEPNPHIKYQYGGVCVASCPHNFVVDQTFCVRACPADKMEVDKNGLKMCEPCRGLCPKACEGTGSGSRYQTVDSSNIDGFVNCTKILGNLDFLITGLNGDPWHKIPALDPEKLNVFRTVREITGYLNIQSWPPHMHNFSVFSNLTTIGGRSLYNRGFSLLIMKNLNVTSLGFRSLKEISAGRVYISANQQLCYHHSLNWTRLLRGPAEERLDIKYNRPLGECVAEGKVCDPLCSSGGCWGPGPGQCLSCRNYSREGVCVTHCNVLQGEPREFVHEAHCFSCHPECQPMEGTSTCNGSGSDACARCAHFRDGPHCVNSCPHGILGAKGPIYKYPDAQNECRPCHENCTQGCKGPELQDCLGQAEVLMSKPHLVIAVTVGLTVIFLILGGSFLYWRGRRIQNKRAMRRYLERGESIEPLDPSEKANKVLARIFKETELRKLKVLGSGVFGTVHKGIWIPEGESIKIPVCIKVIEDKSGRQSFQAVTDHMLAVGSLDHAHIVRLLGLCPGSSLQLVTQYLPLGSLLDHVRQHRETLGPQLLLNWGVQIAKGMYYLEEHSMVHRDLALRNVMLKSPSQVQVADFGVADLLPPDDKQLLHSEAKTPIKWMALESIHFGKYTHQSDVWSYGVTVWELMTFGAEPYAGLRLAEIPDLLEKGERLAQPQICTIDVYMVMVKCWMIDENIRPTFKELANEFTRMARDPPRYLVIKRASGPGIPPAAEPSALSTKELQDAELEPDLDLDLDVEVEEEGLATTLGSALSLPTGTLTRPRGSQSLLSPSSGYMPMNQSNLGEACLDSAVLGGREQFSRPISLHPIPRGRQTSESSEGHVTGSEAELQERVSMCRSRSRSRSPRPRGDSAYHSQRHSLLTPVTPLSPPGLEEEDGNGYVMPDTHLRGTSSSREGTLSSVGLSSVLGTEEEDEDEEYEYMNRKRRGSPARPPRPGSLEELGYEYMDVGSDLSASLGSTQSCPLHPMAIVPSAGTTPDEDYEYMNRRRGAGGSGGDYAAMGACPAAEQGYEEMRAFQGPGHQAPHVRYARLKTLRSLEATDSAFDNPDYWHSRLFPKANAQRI

Results are given in words; binding and its absence hold for the method and conditions named. Binding seen in cells or lysates may run through a third protein. Some results given as binding are weak or reduced against the parent protein; the word gives no strength.

For this assay, the target named is wild-type rat c-neu/ErbB2 transgene-encoded protein (rat) (UniProt P06494). Briefly: co-IP; 200 ug total cell lysate (NP-40 lysis buffer) immunoprecipitated with anti-erbB2 antibody c-neu Ab-4 and protein A-agarose at 4°C, then Western blot for erbB2 (c-neu Ab-3) and erbB3; cells kept overnight in 0.5% FBS, then with or without 2.5 ng/ml HRG for 2 h; low level of complex in untreated ….

For the substance “endogenous mouse erbB3 (from UniProt Q61526 20-1339) (receptor)”, the binding result is on record as “binds”.
